PubChem BioAssay AID652243, Drosophila RNAi Screening Center | 2013

Test: 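Fly genes required for human androgen receptor driven transcription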 (primary screen)
System: Drosophila S2R+ cells
Knock-down reagent: long dsRNA against Drosophila genes
Duration: 72 h (48 h, then 24 h hormone)
Treatment: synthetic androgen R1881 at 10 nM for 24 h
Detection: 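Firefly light from an androgen-responsive reporter and Renilla control light per well, raw and unnormalised, for each of two replicates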
Reading the numbers: firefly reporter light: higher = more light from androgen-responsive reporter; Renilla control light: higher = more constitutive control signal (cell number, transfection)
Call rule: 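Hit when the log firefly-to-Renilla ratio dropped or increased by a fixed fold versus the mean of GFP or LacZ controls across duplicate plates; lowering cut given as 1.5 and as 3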
Meaning of the calls: active = hit: reporter lowered or raised; inactive = no hit
In all, the deposit lists about 24,000 reagents; this is a random part of those that have a named target and a result. Of all reagents, 246 (1%) got an active call. 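Plates not normalised; calls are printed but the firefly/Renilla ratio behind them is not deposited; fold cut for lowering reported inconsistently.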 The raw values are shown without normalisation. No sequences are given here. The record does not give: the amount of reagent.

predicted target | amplicon | firefly reporter light, replicate 1 | firefly reporter light, replicate 2 | Renilla control light, replicate 1 | Renilla control light, replicate 2 | Outcome
Spag1 | DRSC15331 | 1.67e5 | 1.41e5 | 1.50e6 | 2.70e6 | inactive
CG13426 | DRSC06388 | 1.25e5 | 1.64e5 | 1.73e6 | 2.12e6 | inactive
CG34150 | DRSC38812 | 8.28e5 | 7.70e5 | 1.95e6 | 1.78e6 | inactive
pps | DRSC16057 | 1.48e5 | 1.51e5 | 2.26e6 | 2.14e6 | inactive
pps | DRSC23652 | 4.20e5 | 2.78e5 | 5.92e5 | 3.91e5 | inactive
pps | DRSC26594 | 5.25e5 | 4.42e5 | 5.56e5 | 5.41e5 | inactive
Mcad | DRSC09871 | 9.14e5 | 7.96e5 | 1.36e6 | 1.44e6 | inactive
Mcad | DRSC25980 | 3.12e5 | 3.70e5 | 7.12e5 | 6.08e5 | inactive
Tat | DRSC19602 | 2.50e5 | 2.10e5 | 3.44e6 | 2.11e6 | inactive
CG10474 | DRSC05993 | 42910 | 51440 | 5.68e5 | 6.35e5 | inactive
sigmar | DRSC04449 | 8.25e5 | 8.04e5 | 8.02e5 | 9.49e5 | inactive
Rab27 | DRSC18567 | 1.48e5 | 1.19e5 | 1.02e6 | 9.99e5 | inactive
vito | DRSC21781 | 5.42e5 | 4.44e5 | 8.63e5 | 7.81e5 | inactive
vito | DRSC24852 | 7.47e5 | 5.80e5 | 7.79e5 | 6.49e5 | inactive
pyr | DRSC24993 | 4.97e5 | 3.12e5 | 4.78e5 | 4.45e5 | inactive
pins | DRSC17043 | 1.44e5 | 1.34e5 | 1.78e6 | 2.72e6 | inactive

3 entries from above, ordered by “firefly reporter light, replicate 1”, low to high:
predicted target | amplicon | firefly reporter light, replicate 1 | firefly reporter light, replicate 2 | Renilla control light, replicate 1 | Renilla control light, replicate 2 | Outcome
pps | DRSC23652 | 4.20e5 | 2.78e5 | 5.92e5 | 3.91e5 | inactive
pps | DRSC26594 | 5.25e5 | 4.42e5 | 5.56e5 | 5.41e5 | inactive
Mcad | DRSC09871 | 9.14e5 | 7.96e5 | 1.36e6 | 1.44e6 | inactive

The listing continues.
predicted target | amplicon | firefly reporter light, replicate 1 | firefly reporter light, replicate 2 | Renilla control light, replicate 1 | Renilla control light, replicate 2 | Outcome
CG14054 | DRSC17909 | 4.99e5 | 4.43e5 | 5.38e6 | 3.76e6 | inactive
Miga | DRSC17821 | 2.36e5 | 2.30e5 | 1.86e6 | 2.73e6 | inactive
BORCS6 | DRSC08514 | 1.24e5 | 1.52e5 | 1.57e6 | 1.74e6 | inactive
BORCS6 | DRSC25735 | 9.26e5 | 7.09e5 | 9.53e5 | 8.24e5 | inactive
CG31278 | DRSC16051 | 1.36e5 | 1.51e5 | 2.65e6 | 2.51e6 | inactive
CG3457 | DRSC18509 | 1.12e5 | 76876 | 6.72e5 | 4.45e5 | inactive
CG3457 | DRSC26458 | 3.54e5 | 3.13e5 | 6.67e5 | 8.48e5 | inactive
LSm1 | DRSC04458 | 5.11e5 | 3.89e5 | 3.45e6 | 2.37e6 | inactive
sov | DRSC17930 | 1.33e5 | 88716 | 1.04e6 | 7.40e5 | inactive
sov | DRSC24302 | 7.15e5 | 1.12e6 | 7.63e5 | 9.00e5 | inactive
jdp | DRSC16975 | 1.37e5 | 90352 | 7.80e5 | 4.65e5 | inactive
jdp | DRSC29394 | 6.05e5 | 7.62e5 | 1.58e6 | 1.58e6 | inactive
Top2 | DRSC03459 | 1.60e5 | 1.32e5 | 1.21e6 | 1.53e6 | inactive
CG13601 | DRSC14604 | 92202 | 97241 | 6.69e5 | 8.43e5 | inactive
Cds | DRSC10938 | 6.84e5 | 8.14e5 | 1.67e6 | 2.05e6 | inactive
msb1l | DRSC03572 | 7.24e5 | 1.07e6 | 1.51e6 | 1.56e6 | inactive
msb1l | DRSC26438 | 3.13e5 | 2.74e5 | 5.27e5 | 5.53e5 | inactive
ND-51L2 | DRSC07080 | 45959 | 61239 | 1.10e6 | 1.10e6 | inactive
CG17826 | DRSC10289 | 3.12e5 | 2.23e5 | 3.06e6 | 2.38e6 | inactive
CG17826 | DRSC28654 | 3.27e5 | 3.58e5 | 1.48e6 | 1.45e6 | inactive
CG17826 | DRSC39050 | 7.52e5 | 8.51e5 | 1.94e6 | 2.67e6 | inactive
CG6470 | DRSC19994 | 83484 | 87782 | 5.98e5 | 6.22e5 | inactive
CG6470 | DRSC27690 | 4.15e5 | 3.25e5 | 6.14e5 | 7.70e5 | inactive
CG14380 | DRSC14840 | 1.16e5 | 90441 | 1.65e6 | 1.55e6 | inactive
